Source: PMC4726497
These are yes or no findings as the source states them, for the method shown. In cells and extracts the contact can be indirect. Some binding calls cover weakened binding; strength is not graded here.

Protein sequences, listed by entry. Tags and fused reporters are not part of them. Lines headed by an entry give the natural chain unless they say otherwise; changes in a name come on top.
UniProt Q9UIV1: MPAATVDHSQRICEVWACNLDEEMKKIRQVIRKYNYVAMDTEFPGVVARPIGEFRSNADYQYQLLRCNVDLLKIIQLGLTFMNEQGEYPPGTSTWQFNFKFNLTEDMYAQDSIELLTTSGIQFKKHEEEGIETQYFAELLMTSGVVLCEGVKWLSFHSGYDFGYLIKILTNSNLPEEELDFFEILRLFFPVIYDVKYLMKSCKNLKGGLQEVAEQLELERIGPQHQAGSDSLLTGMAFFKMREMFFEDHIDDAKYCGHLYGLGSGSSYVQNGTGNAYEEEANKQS

Legend:
[1] = molecular target: FLAG-CNOT7 (wild type) (human) (UniProt Q9UIV1); test: co-IP; immunoprecipitation of FLAG-CNOT7 constructs with mouse anti-FLAG and Protein G Dynabeads, as described in ref. 57; cell line not stated
[2] = molecular target: CNOT7-M141R (human) (UniProt Q9UIV1); test: as above

binding [1]: binds | binding [2]: binds
B1: TOB1 (protein, UniProt P50616 1-345)
chain: MQLEIQVALNFIISYLYNKLPRRRVNIFGEELERLLKKKYEGHWYPEKPYKGSGFRCIHIGEKVDPVIEQASKESGLDIDDVRGNLPQDLSVWIDPFEVSYQIGEKGPVKVLYVDDNNENGCELDKEIKNSFNPEAQVFMPISDPASSVSSSPSPPFGHSAAVSPTFMPRSTQPLTFTTATFAATKFGSTKMKNSGRSNKVARTSPINLGLNVNDLLKQKAISSSMHSLYGLGLGSQQQPQQQQQPAQPPPPPPPPQQQQQQKTSALSPNAKEFIFPNMQGQGSSTNGMFPGDSPLNLSPLQYSNAFDVFAAYGGLNEKSFVDGLNFSLNNMQYSNQQFQPVMAN
